{"sequences": {"note": "By UniProt entry, the sequences of proteins in these tests, tags left out. Where a name states a change or a piece, a line headed by the entry shows the natural chain unless it says otherwise.", "UniProt Q07011": "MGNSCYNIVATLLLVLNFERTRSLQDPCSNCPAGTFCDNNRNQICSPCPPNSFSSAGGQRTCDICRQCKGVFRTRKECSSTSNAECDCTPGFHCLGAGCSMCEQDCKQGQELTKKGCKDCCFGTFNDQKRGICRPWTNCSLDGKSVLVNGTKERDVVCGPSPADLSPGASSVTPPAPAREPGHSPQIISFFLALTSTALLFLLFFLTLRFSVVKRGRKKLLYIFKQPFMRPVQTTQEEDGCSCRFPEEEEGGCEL"}, "source": "patent US20220220215A1", "binders": {"B1": {"name": "003BB172-E01-2 (VHH, not shown: small tags and cut ends)", "VHH": "EVQLVESGGGLVQPGGSLRLSCAASGFTFSNYGMHWVRQAPGKRLEWVAVISNDGNTKTYADSVKGRFTISRDNSKNTLYLQMTSLRTEDTAVYYCAQDETTTVTASYYFDYWGQGTLVTVSS"}, "B2": {"name": "003BB172-E01-3 (VHH, not shown: small tags and cut ends)", "VHH": "B1 VHH with T78M, T84N"}, "B3": {"name": "003BB172-E01-4 (VHH, not shown: small tags and cut ends)", "VHH": "B1 VHH with R44G"}, "B4": {"name": "003BB172-E01-5 (VHH, not shown: small tags and cut ends)", "VH": "B1 VHH with T84N"}, "B5": {"name": "003BB172-E01-6 (VHH, not shown: small tags and cut ends)", "VHH": "B1 VHH with R44G, T78M, T84N"}, "B6": {"name": "003BB172-E01-7 (VHH, not shown: small tags and cut ends)", "VHH": "B1 VHH with R44G, T84N"}, "B7": {"name": "003BB172-E01-8 (VHH, not shown: small tags and cut ends)", "VHH": "B1 VHH with L11V, R44G, T84N"}, "B8": {"name": "003BB172-E01-9 (VHH, not shown: small tags and cut ends)", "VHH": "B1 VHH with R44G, T84N, T88A"}, "B9": {"name": "003BB172-E01-10 (VHH, not shown: small tags and cut ends)", "VHH": "B1 VHH with G16R, R44G, T84N"}, "B10": {"name": "003BB172-E01-11 (VHH, not shown: small tags and cut ends)", "VHH": "B1 VHH with L11V, G16R, R44G, T84N"}, "B11": {"name": "003BB172-E01-12 (VHH, not shown: small tags and cut ends)", "VHH": "B1 VHH with G16R, R44G, T84N, T88A"}, "B12": {"name": "003BB172-E01-13 (VHH, not shown: small tags and cut ends)", "VHH": "B1 VHH with L11V, R44G, T84N, T88A"}, "B13": {"name": "003BB172-E01-14 (VHH, not shown: small tags and cut ends)", "VH": "B1 VHH with L11V, G16R, R44G, T84N, T88A"}, "B14": {"name": "TPP-942: PDA-6GS-172E1-13-6GS-HSA2-2-His (bispecific antibody)", "chain": "EVQLVESGGGLVQPGRSLRLSCAASGFTFDDYALHWVRQAPGKDLEWVSGISWNGGSYGYADSVKGRFTISRDNAKNSLYLQMNSLRAEDTALYYCVREKGPGLTGSTADYYGLDAWGQGTMVTVSSGGGGSGGGGSGGGGSGGGGSGGGGSGGGGSEVQLVESGGGVVQPGGSLRLSCAASGFTFSNYGMHWVRQAPGKGLEWVAVISNDGNTKTYADSVKGRFTISRDNSKNTLYLQMNSLRAEDTAVYYCAQDETTTVTASYYFDYWGQGTLVTVSSGGGGSGGGGSGGGGSGGGGSGGGGSGGGGSEVQLVESGGGLVKPGGSLRLSCAASGFTFSNYNMNWVRQAPGKGLEWVSSISSAGTHIYYADSVKGRFTISRDNAKNSLYLQMNSLRAEDTAVYYCARDPHSTGWYKDFDYWGQGTLVTVSSAAAHHHHHH"}, "B15": {"name": "TPP-943: PDA-6GS-172E1-13-6GS-HSA2-His (bispecific antibody)", "chain": "EVQLVESGGGLVQPGRSLRLSCAASGFTFDDYALHWVRQAPGKDLEWVSGISWNGGSYGYADSVKGRFTISRDNAKNSLYLQMNSLRAEDTALYYCVREKGPGLTGSTADYYGLDAWGQGTMVTVSSGGGGSGGGGSGGGGSGGGGSGGGGSGGGGSEVQLVESGGGVVQPGGSLRLSCAASGFTFSNYGMHWVRQAPGKGLEWVAVISNDGNTKTYADSVKGRFTISRDNSKNTLYLQMNSLRAEDTAVYYCAQDETTTVTASYYFDYWGQGTLVTVSSGGGGSGGGGSGGGGSGGGGSGGGGSGGGGSEVQLLESGGGLVKPGGSLRLSCAASGFTVSSYTMNWVRQAPGKGLEWVSSISSSGRYIYYADSVKGRFTISRDNAKNSLYLQMNSLRAEDTAVYYCARDPRMVGNPHEFDIWGQGTMVTVSSAAAHHHHHH"}, "B16": {"name": "TPP-950: PDA2-6GS-172E1-13-6GS-HSA2-His (bispecific antibody)", "chain": "EVQLVESGGGVVRPGGSLRLSCAASGFTFDDYAMSWVRQAPGKGLEWVSGITWNAGSTGYADSVKGRFTISRDNAKNSLYLQMNSLRAEDTALYYCVRDKYSYAWSYDDFDIWGQGTMVTVSSGGGGSGGGGSGGGGSGGGGSGGGGSGGGGSEVQLVESGGGVVQPGGSLRLSCAASGFTFSNYGMHWVRQAPGKGLEWVAVISNDGNTKTYADSVKGRFTISRDNSKNTLYLQMNSLRAEDTAVYYCAQDETTTVTASYYFDYWGQGTLVTVSSGGGGSGGGGSGGGGSGGGGSGGGGSGGGGSEVQLVESGGGLVKPGGSLRLSCAASGFTFSNYNMNWVRQAPGKGLEWVSSISSAGTHIYYADSVKGRFTISRDNAKNSLYLQMNSLRAEDTAVYYCARDPHSTGWYKDFDYWGQGTLVTVSSAAAHHHHHH"}, "B17": {"name": "TPP-951: PDA2-6GS-172E1-13-6GS-HSA3-His (bispecific antibody)", "chain": "EVQLVESGGGVVRPGGSLRLSCAASGFTFDDYAMSWVRQAPGKGLEWVSGITWNAGSTGYADSVKGRFTISRDNAKNSLYLQMNSLRAEDTALYYCVRDKYSYAWSYDDFDIWGQGTMVTVSSGGGGSGGGGSGGGGSGGGGSGGGGSGGGGSEVQLVESGGGVVQPGGSLRLSCAASGFTFSNYGMHWVRQAPGKGLEWVAVISNDGNTKTYADSVKGRFTISRDNSKNTLYLQMNSLRAEDTAVYYCAQDETTTVTASYYFDYWGQGTLVTVSSGGGGSGGGGSGGGGSGGGGSGGGGSGGGGSEVQLLESGGGLVKPGGSLRLSCAASGFTVSSYTMNWVRQAPGKGLEWVSSISSSGRYIYYADSVKGRFTISRDNAKNSLYLQMNSLRAEDTAVYYCARDPRMVGNPHEFDIWGQGTMVTVSSAAAHHHHHH"}, "B18": {"name": "TPP-957: PD138G7(G109D)-6GS-172E1-13-6GS-HSA2-His (bispecific antibody)", "chain": "B16 chain with A55G, G66D"}, "B19": {"name": "TPP-958: PD138G7(G109D)-6GS-172E1-13-6GS-HSA3-His (bispecific antibody)", "chain": "B17 chain with A55G, G66D"}, "B20": {"name": "TPP-969: PDA-6GS-HSA2-6GS-172E1-13-His (bispecific antibody)", "chain": "EVQLVESGGGLVQPGRSLRLSCAASGFTFDDYALHWVRQAPGKDLEWVSGISWNGGSYGYADSVKGRFTISRDNAKNSLYLQMNSLRAEDTALYYCVREKGPGLTGSTADYYGLDAWGQGTMVTVSSGGGGSGGGGSGGGGSGGGGSGGGGSGGGGSEVQLVESGGGLVKPGGSLRLSCAASGFTFSNYNMNWVRQAPGKGLEWVSSISSAGTHIYYADSVKGRFTISRDNAKNSLYLQMNSLRAEDTAVYYCARDPHSTGWYKDFDYWGQGTLVTVSSGGGGSGGGGSGGGGSGGGGSGGGGSGGGGSEVQLVESGGGVVQPGGSLRLSCAASGFTFSNYGMHWVRQAPGKGLEWVAVISNDGNTKTYADSVKGRFTISRDNSKNTLYLQMNSLRAEDTAVYYCAQDETTTVTASYYFDYWGQGTLVTVSSAAAHHHHHH"}, "B21": {"name": "TPP-971: PDA2-6GS-HSA2-6GS-172E1-13-His (bispecific antibody)", "chain": "EVQLVESGGGVVRPGGSLRLSCAASGFTFDDYAMSWVRQAPGKGLEWVSGITWNAGSTGYADSVKGRFTISRDNAKNSLYLQMNSLRAEDTALYYCVRDKYSYAWSYDDFDIWGQGTMVTVSSGGGGSGGGGSGGGGSGGGGSGGGGSGGGGSEVQLVESGGGLVKPGGSLRLSCAASGFTFSNYNMNWVRQAPGKGLEWVSSISSAGTHIYYADSVKGRFTISRDNAKNSLYLQMNSLRAEDTAVYYCARDPHSTGWYKDFDYWGQGTLVTVSSGGGGSGGGGSGGGGSGGGGSGGGGSGGGGSEVQLVESGGGVVQPGGSLRLSCAASGFTFSNYGMHWVRQAPGKGLEWVAVISNDGNTKTYADSVKGRFTISRDNSKNTLYLQMNSLRAEDTAVYYCAQDETTTVTASYYFDYWGQGTLVTVSSAAAHHHHHH"}, "B22": {"name": "TPP-972: CD137A-6GS-PDA-6GS-HSA2-His (bispecific antibody)", "chain": "EVQLVESGGGLVQPGGSLRLSCAASGFTLSNYWMNWVRQAPGKGLEWVANINQDGSERYYVDSVKGRFTISRDNAKNSLYLQMNSLRAEDTAVYYCARGGEGYGVDHYGLDVSGQGTTVTVSSGGGGSGGGGSGGGGSGGGGSGGGGSGGGGSEVQLVESGGGLVQPGRSLRLSCAASGFTFDDYALHWVRQAPGKDLEWVSGISWNGGSYGYADSVKGRFTISRDNAKNSLYLQMNSLRAEDTALYYCVREKGPGLTGSTADYYGLDAWGQGTMVTVSSGGGGSGGGGSGGGGSGGGGSGGGGSGGGGSEVQLVESGGGLVKPGGSLRLSCAASGFTFSNYNMNWVRQAPGKGLEWVSSISSAGTHIYYADSVKGRFTISRDNAKNSLYLQMNSLRAEDTAVYYCARDPHSTGWYKDFDYWGQGTLVTVSSAAAHHHHHH"}, "B23": {"name": "TPP-973: CD137A -6GS-PDA2-6GS-HSA2-His (bispecific antibody)", "chain": "EVQLVESGGGLVQPGGSLRLSCAASGFTLSNYWMNWVRQAPGKGLEWVANINQDGSERYYVDSVKGRFTISRDNAKNSLYLQMNSLRAEDTAVYYCARGGEGYGVDHYGLDVSGQGTTVTVSSGGGGSGGGGSGGGGSGGGGSGGGGSGGGGSEVQLVESGGGVVRPGGSLRLSCAASGFTFDDYAMSWVRQAPGKGLEWVSGITWNAGSTGYADSVKGRFTISRDNAKNSLYLQMNSLRAEDTALYYCVRDKYSYAWSYDDFDIWGQGTMVTVSSGGGGSGGGGSGGGGSGGGGSGGGGSGGGGSEVQLVESGGGLVKPGGSLRLSCAASGFTFSNYNMNWVRQAPGKGLEWVSSISSAGTHIYYADSVKGRFTISRDNAKNSLYLQMNSLRAEDTAVYYCARDPHSTGWYKDFDYWGQGTLVTVSSAAAHHHHHH"}}, "note": "Residue numbers refer to the chain shown, from its start. Names and notes keep the numbering of the source. These are yes or no findings as the source states them, for the method shown. Some entries that bind do so weakly or less than the wild type. Tags and fused reporters may be left off the sequences shown."}
{"molecular_target": "human CD137 expressed on cells (human) (UniProt Q07011)", "assay": "FMAT (Mirrorball), His-tagged sample on CHO human CD137 cells"}
{"binder": "B1", "binding": "binds"}
{"binder": "B2", "binding": "binds"}
{"binder": "B3", "binding": "binds"}
{"binder": "B4", "binding": "binds"}
{"binder": "B5", "binding": "binds"}
{"binder": "B6", "binding": "binds"}
{"binder": "B7", "binding": "binds"}
{"binder": "B8", "binding": "binds"}
{"binder": "B9", "binding": "binds"}
{"binder": "B10", "binding": "binds"}
{"binder": "B11", "binding": "binds"}
{"binder": "B12", "binding": "binds"}
{"binder": "B13", "binding": "binds"}
{"binder": "B14", "binding": "binds"}
{"binder": "B15", "binding": "binds"}
{"binder": "B16", "binding": "binds"}
{"binder": "B17", "binding": "binds"}
{"binder": "B18", "binding": "binds"}
{"binder": "B19", "binding": "binds"}
{"binder": "B20", "binding": "binds"}
{"binder": "B21", "binding": "binds"}
{"binder": "B22", "binding": "binds"}
{"binder": "B23", "binding": "binds"}
